Measurements reported in PubChem BioAssay AID1259254 (NCATS, 2017).

Purpose: 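Genome-wide screen for genes that prevent DNA re-replication in cancer cells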 (primary screen)
Cells: human HCT116 colorectal cancer cells
Reagents: single siRNA against human genes
Time to read-out: 3 days
Read-out: 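Imaged Hoechst DNA stain sorts each cell into a cycle phase by DNA amount; per plate, G2 fraction set to 0% for non-targeting and 100% for GMNN siRNA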
Direction: G2 robust z-score and G2 cells, % of GMNN control: higher = more G2 cells, more excess DNA replication
Rule for the call: 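An siRNA counts as active if its G2 robust z-score lies at least 5 MADs above the screen median; here such calls match roughly 38% of GMNN control or more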
In all, the deposit lists about 59,000 reagents; shown is a part drawn at random. About 1,550 of them (2.6%) were called active. 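G2 share is only a proxy for re-replication; each gene was hit by three separate siRNAs, and active genes were retested.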 Reagents against one gene are numbered here. Further read-outs or replicates are left out here. The record does not give: the amount of reagent.

no.	gene symbol	siRNA no.	G2 robust z-score	G2 cells, % of GMNN control	call
1	VIL1	1	0.189	4.3	inactive
2	VIL1	2	0.704	7.92	inactive
3	VIL1	3	0.513	6.58	inactive
4	ARHGAP45	1	-0.606	-1.29	inactive
5	ARHGAP45	2	-0.548	-0.89	inactive
6	ARHGAP45	3	0.761	8.32	inactive
7	LINC00703	1	-0.0984	2.27	inactive
8	LINC00703	2	-0.0302	2.76	inactive
9	LINC00703	3	0.542	6.78	inactive
10	TRIM28	1	-0.64	-1.54	inactive
11	TRIM28	2	-0.574	-1.07	inactive
12	TRIM28	3	-1.07	-4.54	inactive
13	KCNN2	1	1.6	14.2	inactive
14	KCNN2	2	0.074	3.49	inactive
15	KCNN2	3	-0.566	-1.02	inactive
16	TCF12-DT	1	2.73	22.2	inactive
17	TCF12-DT	2	6	45.2	active
18	TCF12-DT	3	-0.745	-2.28	inactive
19	ARHGAP21	1	-0.952	-3.73	inactive
20	ARHGAP21	2	-0.969	-3.85	inactive
21	ARHGAP21	3	-0.268	1.08	inactive
22	SFN	1	1.39	12.7	inactive
23	SFN	2	6.17	46.4	active
24	SFN	3	-0.27	1.06	inactive
25	ATG9A	1	1.41	12.9	inactive
26	ATG9A	2	1.16	11.1	inactive
27	ATG9A	3	-0.63	-1.46	inactive
28	SHISA4	1	0.39	5.71	inactive
29	SHISA4	2	1.21	11.5	inactive
30	SHISA4	3	1.16	11.2	inactive
31	SLC9A6	1	-0.494	-0.505	inactive
32	SLC9A6	2	0.416	5.89	inactive
33	SLC9A6	3	-0.347	0.526	inactive
34	TRAPPC6A	1	0.0842	3.56	inactive
35	TRAPPC6A	2	-0.26	1.14	inactive
36	TRAPPC6A	3	-0.3	0.853	inactive
37	TAF8	1	-0.449	-0.19	inactive
38	TAF8	2	0.736	8.14	inactive
39	TAF8	3	0.323	5.24	inactive
40	PRPH2	1	1.34	12.4	inactive
41	PRPH2	2	-0.85	-3.01	inactive
42	PRPH2	3	-0.75	-2.31	inactive

Continued; the last 2 above are carried over.
no.	gene symbol	siRNA no.	G2 robust z-score	G2 cells, % of GMNN control	call
41	PRPH2	2	-0.85	-3.01	inactive
42	PRPH2	3	-0.75	-2.31	inactive
43	GPATCH8	1	0.914	9.4	inactive
44	GPATCH8	2	2.67	21.8	inactive
45	GPATCH8	3	2.11	17.8	inactive
46	DEFB134	1	6.12	46	active
47	DEFB134	2	0.441	6.07	inactive
48	DEFB134	3	0.028	3.16	inactive
49	SLC9D1	1	-0.839	-2.94	inactive
50	SLC9D1	2	-0.394	0.197	inactive
51	SLC9D1	3	2.54	20.9	inactive
52	SGTB	1	-0.242	1.26	inactive
53	SGTB	2	-1.3	-6.18	inactive
54	SGTB	3	-0.879	-3.22	inactive
55	THBS1	1	-0.716	-2.07	inactive
56	THBS1	2	-0.354	0.477	inactive
57	THBS1	3	7.77	57.6	active
58	TET3	1	-0.99	-4	inactive
59	TET3	2	-0.0944	2.3	inactive
60	TET3	3	-0.983	-3.95	inactive
61	MIXL1	1	3	24.1	inactive
62	MIXL1	2	-0.33	0.643	inactive
63	MIXL1	3	-0.425	-0.025	inactive
64	DRAXIN	1	1.19	11.3	inactive
65	DRAXIN	2	-0.13	2.06	inactive
66	DRAXIN	3	1.72	15.1	inactive
67	UBL4A	1	1.89	16.3	inactive
68	UBL4A	2	3.33	26.4	inactive
69	UBL4A	3	-0.465	-0.304	inactive
